Reference: US20250206839A1, “METHODS, COMPOSITIONS AND USES FOR SEMA7A MONOCLONAL ANTIBODIES” (THE REGENTS OF THE UNIVERSITY OF COLORADO, A BODY CORPORATE, priority 2022, published 2025)
Results are given in words; binding and its absence hold for the method and conditions named. Some entries that bind do so weakly or less than the wild type. For part of these data: Sequences can lack the tags named with a protein.

Legend:
[1] = molecular target: recombinant anti-SEMA7A monoclonal antibody; experiment: ELISA, peptide competition: antibody pre-incubated 1:10 with the SEMA7A peptide
[2] = molecular target: T1, purified SEMA7A protein (human) (UniProt O75326); experiment: ELISA on plate-coated purified SEMA7A, goat anti-mouse IgG HRP, absorbance at 425 nm [panel B, lower graph]
T1 sequence: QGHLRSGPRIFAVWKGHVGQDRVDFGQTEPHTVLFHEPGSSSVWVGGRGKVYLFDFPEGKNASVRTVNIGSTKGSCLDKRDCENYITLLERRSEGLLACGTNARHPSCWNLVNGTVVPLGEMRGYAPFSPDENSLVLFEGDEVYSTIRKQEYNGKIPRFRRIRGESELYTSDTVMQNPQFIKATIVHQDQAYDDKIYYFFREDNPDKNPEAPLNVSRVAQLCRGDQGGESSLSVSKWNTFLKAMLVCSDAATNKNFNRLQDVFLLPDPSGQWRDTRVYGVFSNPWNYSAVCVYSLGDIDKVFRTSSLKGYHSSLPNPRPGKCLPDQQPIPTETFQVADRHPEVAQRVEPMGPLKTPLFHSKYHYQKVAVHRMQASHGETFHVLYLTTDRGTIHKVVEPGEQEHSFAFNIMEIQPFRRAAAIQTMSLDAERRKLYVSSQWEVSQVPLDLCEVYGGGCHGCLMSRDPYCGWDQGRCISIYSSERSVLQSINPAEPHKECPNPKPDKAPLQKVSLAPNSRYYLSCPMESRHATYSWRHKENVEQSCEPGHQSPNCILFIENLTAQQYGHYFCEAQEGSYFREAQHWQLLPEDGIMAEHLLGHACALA

[3] = molecular target: T2, SEMA7A on human breast cancer MCF7 SEMA7A overexpressing cells treated with TAPI-1 (human) (UniProt O75326); experiment: immunofluorescence on MCF7 Sema7a OE cells, SmAb 250:1, FITC secondary 1000:1
T2 sequence: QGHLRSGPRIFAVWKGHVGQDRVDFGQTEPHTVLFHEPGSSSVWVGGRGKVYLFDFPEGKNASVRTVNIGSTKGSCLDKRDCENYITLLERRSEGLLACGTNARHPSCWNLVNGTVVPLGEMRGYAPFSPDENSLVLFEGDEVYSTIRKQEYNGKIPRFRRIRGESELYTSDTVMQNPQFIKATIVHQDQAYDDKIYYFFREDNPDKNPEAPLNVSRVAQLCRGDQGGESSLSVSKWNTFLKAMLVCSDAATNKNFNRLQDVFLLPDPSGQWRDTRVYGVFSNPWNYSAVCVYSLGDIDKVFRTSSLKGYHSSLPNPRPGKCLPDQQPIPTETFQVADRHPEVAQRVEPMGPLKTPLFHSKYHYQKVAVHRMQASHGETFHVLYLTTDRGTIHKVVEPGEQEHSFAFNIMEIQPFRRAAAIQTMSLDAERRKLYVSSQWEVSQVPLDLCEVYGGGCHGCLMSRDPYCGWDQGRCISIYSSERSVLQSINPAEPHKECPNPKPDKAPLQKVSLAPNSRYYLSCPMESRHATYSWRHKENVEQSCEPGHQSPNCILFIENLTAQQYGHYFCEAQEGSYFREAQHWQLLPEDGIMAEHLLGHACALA

[4] = molecular target: T3, endogenous SEMA7A (75 kDa) of MCF7 cells (human) (UniProt O75326); experiment: Western blot of cell lysates, 200 µg/mL antibody
T3 sequence: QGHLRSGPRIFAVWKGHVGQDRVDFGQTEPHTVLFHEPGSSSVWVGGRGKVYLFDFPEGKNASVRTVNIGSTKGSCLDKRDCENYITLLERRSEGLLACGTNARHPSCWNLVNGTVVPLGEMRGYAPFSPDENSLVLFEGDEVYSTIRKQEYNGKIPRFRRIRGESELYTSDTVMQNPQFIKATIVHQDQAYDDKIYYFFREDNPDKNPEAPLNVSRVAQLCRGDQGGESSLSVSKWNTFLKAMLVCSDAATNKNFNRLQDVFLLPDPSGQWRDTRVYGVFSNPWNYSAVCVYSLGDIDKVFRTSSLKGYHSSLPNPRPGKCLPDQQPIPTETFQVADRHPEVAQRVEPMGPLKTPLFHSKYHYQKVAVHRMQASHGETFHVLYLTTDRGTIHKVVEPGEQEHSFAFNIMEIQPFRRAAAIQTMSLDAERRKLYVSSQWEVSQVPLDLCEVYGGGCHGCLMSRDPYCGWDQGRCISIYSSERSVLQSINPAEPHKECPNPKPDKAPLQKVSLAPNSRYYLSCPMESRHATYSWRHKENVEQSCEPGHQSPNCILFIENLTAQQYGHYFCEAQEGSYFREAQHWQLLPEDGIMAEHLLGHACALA

[5] = molecular target: T4, V5 tagged SEMA7A (100 kDa) overexpressed in MCF7 cells (human) (UniProt O75326); experiment: Western blot of cell lysates, 200 µg/mL antibody
T4 sequence: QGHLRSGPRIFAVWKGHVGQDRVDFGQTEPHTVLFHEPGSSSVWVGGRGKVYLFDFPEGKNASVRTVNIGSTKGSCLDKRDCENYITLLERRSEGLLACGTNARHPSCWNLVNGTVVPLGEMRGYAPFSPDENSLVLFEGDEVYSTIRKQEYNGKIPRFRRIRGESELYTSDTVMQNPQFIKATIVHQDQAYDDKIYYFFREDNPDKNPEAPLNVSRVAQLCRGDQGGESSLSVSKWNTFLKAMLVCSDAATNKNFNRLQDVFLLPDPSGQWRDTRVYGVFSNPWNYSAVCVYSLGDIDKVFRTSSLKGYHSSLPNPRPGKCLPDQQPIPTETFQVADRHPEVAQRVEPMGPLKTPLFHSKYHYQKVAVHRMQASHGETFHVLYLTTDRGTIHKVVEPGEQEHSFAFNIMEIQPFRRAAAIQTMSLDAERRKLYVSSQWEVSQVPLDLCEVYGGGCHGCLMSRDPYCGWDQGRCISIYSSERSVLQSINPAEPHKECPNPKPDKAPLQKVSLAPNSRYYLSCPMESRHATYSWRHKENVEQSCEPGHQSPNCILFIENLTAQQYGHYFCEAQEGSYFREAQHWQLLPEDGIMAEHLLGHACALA

[6] = molecular target: T3, endogenous SEMA7A (75 kDa) of MCF7 cells (human); experiment: Western blot of MCF7 cell lysates probed with 200 ug/ml CUH1, goat anti-mouse IgG HRP [panel A]
[7] = molecular target: T4, V5 tagged SEMA7A (100 kDa) overexpressed in MCF7 cells (human); experiment: as above
[8] = molecular target: T1, purified SEMA7A protein (human); experiment: ELISA on plate-coated purified SEMA7A, goat anti-mouse IgG HRP, absorbance at 425 nm [panel B, upper graph]
[9] = molecular target: T2, SEMA7A on human breast cancer MCF7 SEMA7A overexpressing cells treated with TAPI-1 (human); experiment: immunofluorescence on fixed MCF7 SEMA7A overexpressing cells
[10] = molecular target: T1, purified SEMA7A protein (human); experiment: ELISA, plate coated with purified SEMA7A
[11] = molecular target: T1, purified SEMA7A protein (human); experiment: ELISA, dose-response curve
[12] = molecular target: T3, endogenous SEMA7A (75 kDa) of MCF7 cells (human); experiment: Western blot of MCF7 cell lysates
[13] = molecular target: T4, V5 tagged SEMA7A (100 kDa) overexpressed in MCF7 cells (human); experiment: Western blot of MCF7 cell lysates
[14] = molecular target: T1, purified SEMA7A protein (human); experiment: ELISA on plate-coated purified SEMA7A, goat anti-mouse IgG HRP, absorbance at 425 nm

Measured: binding

ADRHPEVAQR [immunizing SEMA7A peptide (10 amino acid SEMA7A peptide)]
binds: [1]

B1: SEMA7A monoclonal antibody SmAbH1 (antibody, V domains shown)
VH: QVKLQESGTVLARPGASVKMSCKASVYSFTSYWMHWVKQRPGQGLEWIGAIYPGNSDTSYNQKFKGKAKLTAVTSASTAYMELSSLTNEDSAVYYCTRGGAPTMITAYYAMDYWGQGTSVTVSS
VL: DIQMTQTTSSLSASLGDRVTISCRASQDISNYLNWYQQKPDGTVKLLIYYTSRLHSGVPSRFSGSGSGTDYSLTISNLEQEDIATYFCQQGNTLPWTFGGGTKLEIKR
not listed: [1] | [14]
binds: all other assays above

B2: recombinant anti-SEMA7A monoclonal antibody (antibody, mouse IgG1, kappa, V domains shown)
VH: EVQLQQSGTVLARPGASVKMSCKASGYSFTSYWMHWVKQRPGQGLEWIGAIYPGNSDTSYNQKFKGKAKLTAVTSASTAYMELSSLTNEDSAVYYCTRGGAPTMITAYYAMDYWGQGTSVTVSS
VL: DIQMTQTTSSLSASLGDRVTISCRASQDISNYLNWYQQKPDGTVKLLIYYTSRLHSGVPSRFSGSGSGTDYSLTISNLEQEDIATYFCQQGNTLPWTFGGGTKLEIKR
binds: [14] | [10]
